According to patent US20240299496A1, “DRUG FOR TREATING FATTY LIVER AND NONALCOHOLIC STEATOHEPATITIS” (Osaka University, priority 2021, published 2024):
“Also recorded” adds a separate entry of the source. At least one peptide structure holds a part that was inferred or is arguable (an end, a ring closure or a residue). Where no end group is shown, it is not given here.

Key:
Type in all cases: in vivo, mouse
[1] = system: NASH model mice (MC4R-KO mice fed a high-fat diet); assay: HE staining of liver tissue (lipid droplets); conditions: 5 mg/kg tail vein injection twice a week for four weeks; vs control group; microscopic pictures
[2] = system: NASH model mice (MC4R-KO mice fed a high-fat diet); assay: Hydroxyproline assay of liver tissue; conditions: 5 mg/kg tail vein injection twice a week for four weeks; vs control group; t-test
[3] = system: NASH model mice (MC4R-KO mice fed a high-fat diet); assay: Sirius Red staining of liver tissue; conditions: 5 mg/kg tail vein injection twice a week for four weeks, vs control group
[4] = system: NASH model mice (MC4R-KO mice fed a high-fat diet); assay: Measurement of NAS (inflammation of lobes, ballooning of liver cells, NAFLD Activity Score); conditions: 5 mg/kg tail vein injection twice a week for four weeks, vs control group, t-test
[5] = system: NASH model mice (MC4R-KO mice fed a high-fat diet); assay: F4/80 immunohistostaining of liver tissue; conditions: 5 mg/kg tail vein injection twice a week for four weeks, vs control group
[6] = system: NASH model mice (MC4R-KO mice fed a high-fat diet); assay: Blood analyses (serum biochemistry) of NASH model mice; conditions: 5 mg/kg tail vein injection twice a week for four weeks; vs control group; t-test
[7] = system: NASH model mice (MC4R-KO mice fed a high-fat diet); assay: Body weight and liver weight of NASH model mice; conditions: 5 mg/kg tail vein injection twice a week for four weeks; twenty weeks after initiating high-fat diet; vs control group; t-test
Description: Melanocortin-4 receptor knockout mice (hereinafter also referred to as “MC4R-KO mice,” genetic background: C57BL/6J) were provided by Dr. Joel K Elmquist of University of Texas, Medical Center.
Subsequently, NASH was induced in the mice by feeding a high-fat diet to the MC4R-KO mice, as detailed in the below reference. […] Later, the diet was switched from the normal diet to a high-fat diet (HFD) and the high-fat diet was fed for 20 weeks. Thereby, NASH was developed in the mice. • Itoh M, Suganami T, Nakagawa N, et al. Melanocortin 4 receptor-deficient mice as a novel mouse model of nonalcoholic steatohepatitis. Am J Pathol 2011; 179: 2454-63.
Here, CE-2 (manufactured by CLEA Japan, Inc.) was used as the normal diet, and Western Diet (manufactured by EPS EKISHIN Co., Ltd., containing 0.21% of cholesterol+41% kcal of milk fat) was used as the high-fat diet.
Experiments were carried out by dividing the mice into two groups of an HMGB1 peptide administration group (HMGB1 administration group) and a control group (normal saline; NS administration; CTRL administration group). […]
The mice were euthanized twenty weeks after initiating the high-fat diet, and arterial blood was collected from the heart of the mice. […] In all of the following statistical analyses, significance was calculated by a t-test.

For “MGKGDPKKPRGKMSSYAFFVQTCREEHKKKHPDASVNFSEFSKK [HMGB1 peptide]”, the “number of lipid droplets found in the liver cells (HE staining)” value [1] was “smaller; also recorded: remarkably decreased”, the “amount of hydroxyproline in liver tissue” value [2] was “significantly lower” and the “Sirius Red staining stained area (microscopic pictures)” value ([3]; FIG. 4) was “smaller”. The “Sirius Red positive area (quantified)” value ([3]; image analysis, FIG. 5, t-test) was “significantly lower”, the “score of the ballooning of liver cells” value ([4]; scoring per Table 1) was “significantly lower” and the “score of the inflammation of lobes” value ([4]; scoring per Table 1) was “significantly lower”. The “NAFLD Activity Score (NAS)” value [4] was “significantly lower”, the “F4/80 immunohistostaining stained area (microscopic pictures)” value ([5]; FIG. 4) was “smaller” and the “number of F4/80 positive cells” value ([5]; FIG. 4) was “smaller”. For the same sequence, the “F4/80 positive area (quantified)” value ([5]; image analysis, FIG. 5, t-test) was “significantly lower”, the “ALT concentration in the serum” value [6] was “significantly decreased (improved)” and the “AST concentration in the serum” value [6] was “significantly decreased (improved)”. For the same sequence, the “T-Cho concentration in the serum” value [6] was “significantly decreased (improved)”, the “T-bil concentration in the serum” value [6] was “significantly decreased (improved)” and the liver weight [7] was “significant differences were not observed”. The “percentage of the liver weight to the body weight” value [7] was “significant differences were not observed”.
